# Results of single-concentration screens

Protein sequences, listed by entry. Tags and fused reporters are not part of them.
UniProt I6X8D2, whole entry: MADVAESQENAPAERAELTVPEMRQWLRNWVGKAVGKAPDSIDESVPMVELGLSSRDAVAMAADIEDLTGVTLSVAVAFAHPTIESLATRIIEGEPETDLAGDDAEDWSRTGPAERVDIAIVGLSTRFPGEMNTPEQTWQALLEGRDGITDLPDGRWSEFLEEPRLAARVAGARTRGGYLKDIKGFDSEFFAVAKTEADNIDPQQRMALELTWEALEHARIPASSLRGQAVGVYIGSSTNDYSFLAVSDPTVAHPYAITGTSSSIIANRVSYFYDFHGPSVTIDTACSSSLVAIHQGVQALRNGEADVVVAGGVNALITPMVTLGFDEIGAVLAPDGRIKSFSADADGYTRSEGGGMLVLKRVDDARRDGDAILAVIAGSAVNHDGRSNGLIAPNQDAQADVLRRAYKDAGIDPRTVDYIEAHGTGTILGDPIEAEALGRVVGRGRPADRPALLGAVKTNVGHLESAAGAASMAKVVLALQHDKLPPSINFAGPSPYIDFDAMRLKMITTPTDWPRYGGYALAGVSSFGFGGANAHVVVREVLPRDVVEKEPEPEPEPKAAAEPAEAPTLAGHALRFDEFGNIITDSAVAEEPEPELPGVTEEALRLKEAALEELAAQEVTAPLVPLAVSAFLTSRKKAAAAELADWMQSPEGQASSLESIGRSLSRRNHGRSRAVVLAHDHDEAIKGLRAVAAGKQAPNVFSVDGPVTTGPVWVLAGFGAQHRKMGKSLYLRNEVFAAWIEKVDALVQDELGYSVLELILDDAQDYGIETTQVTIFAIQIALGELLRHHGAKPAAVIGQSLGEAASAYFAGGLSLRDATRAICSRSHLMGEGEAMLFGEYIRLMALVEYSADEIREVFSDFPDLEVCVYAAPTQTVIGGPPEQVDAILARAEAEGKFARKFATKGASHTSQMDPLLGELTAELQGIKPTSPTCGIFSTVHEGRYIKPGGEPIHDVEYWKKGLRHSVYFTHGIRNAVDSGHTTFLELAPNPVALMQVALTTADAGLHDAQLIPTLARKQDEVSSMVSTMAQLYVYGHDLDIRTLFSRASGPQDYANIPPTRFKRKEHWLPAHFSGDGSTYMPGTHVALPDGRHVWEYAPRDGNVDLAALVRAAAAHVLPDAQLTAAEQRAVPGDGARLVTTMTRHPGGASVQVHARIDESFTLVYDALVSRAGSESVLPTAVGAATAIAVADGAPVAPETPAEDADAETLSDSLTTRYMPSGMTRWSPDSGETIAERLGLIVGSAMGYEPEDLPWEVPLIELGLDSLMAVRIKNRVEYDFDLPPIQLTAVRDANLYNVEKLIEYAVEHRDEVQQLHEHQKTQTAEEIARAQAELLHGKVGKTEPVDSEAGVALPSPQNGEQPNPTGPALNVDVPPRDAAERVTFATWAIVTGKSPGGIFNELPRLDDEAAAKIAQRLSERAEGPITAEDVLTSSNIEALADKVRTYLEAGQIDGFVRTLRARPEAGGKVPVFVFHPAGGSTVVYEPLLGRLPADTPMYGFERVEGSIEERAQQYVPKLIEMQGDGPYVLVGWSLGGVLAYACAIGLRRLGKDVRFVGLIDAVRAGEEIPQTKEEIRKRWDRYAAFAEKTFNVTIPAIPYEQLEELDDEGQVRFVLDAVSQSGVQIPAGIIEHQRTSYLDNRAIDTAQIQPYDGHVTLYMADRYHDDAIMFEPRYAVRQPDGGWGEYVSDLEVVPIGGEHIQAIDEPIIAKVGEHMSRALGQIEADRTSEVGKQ

The values are deposited in ChEMBL (CHEMBL3988442, “University of Dundee, Small-Polar-MMV Screening Library” (2021)).

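Polyketide synthase Pks13, Mycobacterium tuberculosis (UniProt I6X8D2). Enzyme assay of the thioesterase domain of polyketide synthase 13; the read-out is not stated. Tested at 30 µM. The record gives no direction; the compounds picked for IC50 retests had high values, so higher reads as stronger inhibition. Size under these conditions: about 67,000 compounds, about 300 of them at 50% or above in at least one test.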

The filed quantity is “Percent Effect” (%).
The record does not define 0% and 100%; most values in the screen are far below 50% and negative numbers occur (in some assays of this library far below -100).
Compounds were drawn at random from those tested, without regard to their results.

| # | compound | effect |
|---|---|---|
| 1 | `COc1ccc(NC(=O)N(C)Cc2ccsc2)cn1` | 1.583 |
| 2 | `CCn1cc2c(n1)CN(Cc1cnn(C)c1)CC2COCC1CC1` (stereo unspecified) | -23.09 |
| 3 | `CC(C)(C)CC(=O)NCC1CCCS1` (stereo unspecified) | -17.6 |
| 4 | `c1ccc(Cc2nnc([C@H]3CCN(C4CCCCC4)C3)o2)cc1` | -31.31 |
| 5 | `Cc1cc(C)n(C2CN(CC(=O)NC3CCOCC3)C2)n1` | -19.49 |
| 6 | `CCCc1ccc(CN2CCC3(CC2)CNC(=O)C3)o1` | 0.06889 |
| 7 | `O=c1[nH][nH]cc1-c1ccnc(NCCc2cccc(O)c2)n1` | 29.34 |
| 8 | `Cn1c2c(c(=O)c3ccccc31)CCC(C)(C)O2` | 2.419 |
| 9 | `FC(F)(F)Oc1ccc(CN2CCCC(n3cncn3)C2)cc1` (stereo unspecified) | 12.45 |
| 10 | `Cc1ccc(C(CNC(=O)c2cc(CC(C)C)nn2C)N(C)C)cc1` (stereo unspecified) | -50.2 |
| 11 | `CCOc1ccccc1CN1CCc2nc3ccsc3c(=O)n2CC1` | 17.15 |
| 12 | `NC(=O)CN1CCC(c2noc3cc(F)ccc23)CC1` | 24.25 |
| 13 | `COc1ccccc1-c1noc(CN2CCCC2Cn2cccn2)n1` (stereo unspecified) | -22.27 |
| 14 | `Cc1cccc2c(CCNC(=O)NCCC[S+](C)[O-])c[nH]c12` (stereo unspecified) | -15.9 |
| 15 | `O=C(Nc1ccccn1)C1=NN(c2ccccc2)C(=O)CN1` | 6.797 |
| 16 | `COCCNC(=O)Cn1ccc2cccc(OC)c21` | -19.82 |
| 17 | `O=C(c1ccc(Cl)s1)N1CCCn2nc(CN3CC[C@H](F)C3)cc2C1` | -28.62 |
| 18 | `Cc1ccc(C)c(C(NC2CCCC2)c2cccnc2)c1` (stereo unspecified) | 5.351 |
| 19 | `COc1cccc(CN(C)C(=O)c2csc(-c3nnc[nH]3)n2)c1` | -14.2 |
| 20 | `CCOc1cc(C)nc(N2CCN(C(=O)c3cc[nH]n3)CC2)n1` | -11.53 |
| 21 | `CC(=O)N1CCc2ccc(S(=O)(=O)N3CCCCC3C)cc21` (stereo unspecified) | -4.808 |
| 22 | `Cc1ccc(-n2ncc(C(=O)NC3CC(C)(C)NC(C)(C)C3)c2N)cc1` | 16.84 |
| 23 | `O=C(CCN1CCc2cncnc2C1)N1CCc2sccc2C1` | 0.3791 |
| 24 | `CN(C)C(=O)C1CN(Cc2nccs2)CCN(S(C)(=O)=O)C1` (stereo unspecified) | -9.539 |
| 25 | `CN1CCCN(S(=O)(=O)c2cccc(C(=O)N3CCCCCC3)c2)CC1` | -1.713 |
| 26 | `CC(C)(C)C1CCC(NCCN2CCOCC2)CC1` (stereo unspecified) | -9.919 |
| 27 | `Cn1cc(CNCCC(=O)NCc2ccccc2)c(-c2cccnc2)n1` | -20.11 |
| 28 | `Cc1noc(CN(C)Cc2cnc(N3CCOCC3)nc2)n1` | -28.33 |
| 29 | `CCN(CC1CN(Cc2cccnc2)CCO1)c1cccnn1` (stereo unspecified) | 9.729 |
| 30 | `CC(NCc1ccc(F)cc1)c1ccc(OCC(=O)NC2CC2)cc1` (stereo unspecified) | -9.006 |
| 31 | `Clc1cc(N2CCN(C3CCOCC3)CC2)nc2[nH]ccc12` | 2.169 |
| 32 | `Cc1nc2c(C)cccc2cc1C(=O)N1CCC2(CCNCC2)CC1` | -5.579 |
| 33 | `Cn1ccc2cc(C(=O)NC3CCS(=O)(=O)C3)ccc21` (stereo unspecified) | -16.44 |
| 34 | `Cc1nc(C)n(CC2CN(Cc3cscn3)CCO2)n1` (stereo unspecified) | -25.43 |
| 35 | `Cc1cc(C(=O)NC2=NCCS2)c(C)n1-c1ccccn1` | -15.83 |
| 36 | `CC(=O)NC1CCN(C(=O)c2cnc(COc3ccccc3)nc2O)C1` (stereo unspecified) | -17.09 |
| 37 | `COCCCn1ccc(NCc2ccc(NC(C)=O)cc2)n1` | -22.2 |
| 38 | `Cc1cc(C(=O)NC(C)c2nnn[nH]2)c2cccc(C)c2n1` (stereo unspecified) | -5.022 |
| 39 | `COc1ccc(Cl)cc1-c1cc(NC(=O)CNC(=O)C2CC2)[nH]n1` | -15.59 |
| 40 | `COCCOC1CCN(C(C(=O)O)c2ccc3c(c2)OCO3)CC1` (stereo unspecified) | -2.102 |
| 41 | `CN(C)CCN1C2(CCN(Cc3nccs3)C2)c2ccccc2S1(=O)=O` (stereo unspecified) | -58.24 |
| 42 | `O=C(C1=CCCC1)N1CC[C@]2(C[C@H](OCc3cccnc3)CO2)C1` | -22.14 |
| 43 | `CNc1nc(CNC(=O)Nc2ccccc2SC)cs1` | 1.572 |
| 44 | `Cc1noc(C2CCC3(CCN(C(=O)c4ccnnc4)CC3)O2)n1` (stereo unspecified) | -19.02 |
| 45 | `Cc1csc2c(N3CCC(NCCCc4ccncc4)CC3)ncnc12` | -11.69 |
| 46 | `CN(C)c1cc(C(=O)N2CCCCCC2)ccn1` | -9.146 |
| 47 | `Cc1ccc2c(c1)OC(C)(C)CC2NC(=O)C1CCN(C)CC1` (stereo unspecified) | -3.004 |
| 48 | `CCOCC1CN(CCOCc2ccccc2)Cc2c1cnn2C` (stereo unspecified) | -19.16 |
| 49 | `CCCS(=O)(=O)N1CCC(Oc2ccc(C#N)cc2)CC1` | -0.7727 |
| 50 | `COc1cc2c(cc1CNC(=O)C(C)n1ccnc1C(C)C)OCCO2` (stereo unspecified) | -7.668 |
| 51 | `Cc1cc(N2CCOC(C(F)(F)F)C2)nc(-c2ccccc2O)n1` (stereo unspecified) | -10.32 |
| 52 | `CC(=O)c1cc(C(=O)N2CCC(CC(C)C)C2)c(=O)[nH]c1C` (stereo unspecified) | 0.5908 |
| 53 | `CN(C)C[C@@H]1C[C@@H]2CN(C(=O)c3ccoc3)CC[C@@H]2N1CC1CC1` | -12.65 |
| 54 | `CC(C)CS(=O)(=O)N1C[C@H]2C[C@H](C(=O)N3CCOCC3)[C@@H](C1)O2` | -43.79 |
| 55 | `CCS(=O)(=O)c1ccccc1N1CCC(NC2CCCC2)CC1` | -15.26 |
| 56 | `Clc1ccc2oc(C3CCN(Cc4nc(C5CC5)no4)CC3)nc2c1` | -28.42 |
| 57 | `COc1ccc(OC)c(CN(Cc2ccco2)Cc2[nH]cnc2C)c1` | 6.562 |
| 58 | `COc1cc(C)c(S(=O)(=O)CC(=O)N(C)C(C)C)cc1OC` | -8.405 |
| 59 | `CCn1nc(C)c2nc(C(C)C)nc(NCC(C)C)c21` | -9.007 |
| 60 | `CCNC(=O)c1nnc2ccc(N3CCOCC3)cc2n1` | 48.23 |
| 61 | `Cc1c(CCC(=O)Nc2ccc(Cl)cn2)cnn1C` | -8.237 |